From patent US8901276B2 (The Regents of the University of Michigan, priority 2010, dated 2014)

Test: general procedure: Fmoc solid-phase peptide synthesis; rink amide MBHA resin
Conditions: whole synthesis, reverse phase analytical HPLC on a C18 column

## QPIHPNNM (N-terminal Cy5.5 via aminohexanoic acid)
  final HPLC purity: >95%

End groups of sequences in plain letters are not given here.
